Results are given in words; binding and its absence hold for the method and conditions named. In cells and extracts the contact can be indirect. Some entries that bind do so weakly or less than the wild type. For some of these results: Tags and fused reporters may be left off the sequences shown.
T1: MYC-TAB2 (TAK1-binding protein 2) (UniProt Q99K90)
T1 sequence: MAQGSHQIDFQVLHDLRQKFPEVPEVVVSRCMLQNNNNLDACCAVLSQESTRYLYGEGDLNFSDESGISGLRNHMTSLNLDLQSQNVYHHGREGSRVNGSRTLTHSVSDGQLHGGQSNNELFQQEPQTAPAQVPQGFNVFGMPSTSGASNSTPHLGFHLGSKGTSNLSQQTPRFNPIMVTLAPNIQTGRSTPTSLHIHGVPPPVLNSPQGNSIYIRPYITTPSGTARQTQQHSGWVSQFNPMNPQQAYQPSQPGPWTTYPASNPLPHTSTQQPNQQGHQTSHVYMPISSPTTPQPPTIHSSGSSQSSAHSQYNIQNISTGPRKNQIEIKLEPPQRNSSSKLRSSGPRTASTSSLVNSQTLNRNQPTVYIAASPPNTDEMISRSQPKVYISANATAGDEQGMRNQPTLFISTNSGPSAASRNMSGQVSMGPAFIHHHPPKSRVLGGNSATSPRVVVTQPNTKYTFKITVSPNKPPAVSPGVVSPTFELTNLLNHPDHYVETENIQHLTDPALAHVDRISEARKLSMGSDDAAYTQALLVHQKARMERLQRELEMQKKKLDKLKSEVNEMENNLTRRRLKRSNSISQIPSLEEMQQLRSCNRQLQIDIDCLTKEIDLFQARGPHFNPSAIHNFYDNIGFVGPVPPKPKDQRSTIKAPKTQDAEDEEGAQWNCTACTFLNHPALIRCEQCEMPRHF

T2: TGFβ-activated kinase 1 (TAK1)-binding proteins 2 (TAB2), endogenous (mouse (endogenous in microglial cells and C57BL/6J brain)) (UniProt Q99K90)
T2 sequence: T1 sequence

B1: Flag-TAK1 (TGFβ-activated kinase 1) (enzyme, UniProt Q62073 1-579)
chain: MSTASAASSSSSSSASEMIEAPSQVLNFEEIDYKEIEVEEVVGRGAFGVVCKAKWRAKDVAIKQIESESERKAFIVELRQLSRVNHPNIVKLYGACLNPVCLVMEYAEGGSLYNVLHGAEPLPYYTAAHAMSWCLQCSQGVAYLHSMQPKALIHRDLKPPNLLLVAGGTVLKICDFGTACDIQTHMTNNKGSAAWMAPEVFEGSNYSEKCDVFSWGIILWEVITRRKPFDEIGGPAFRIMWAVHNGTRPPLIKNLPKPIESLMTRCWSKDPSQRPSMEEIVKIMTHLMRYFPGADEPLQYPCQYSDEGQSNSATSTGSFMDIASTNTSNKSDTNMEQVPATNDTIKRLESKLLKNQAKQQSESGRLSLGASRGSSVESLPPTSEGKRMSADMSEIEARIVATAGNGQPRRRSIQDLTVTGTEPGQVSSRSSSPSVRMITTSGPTSEKPARSHPWTPDDSTDTNGSDNSIPMAYLTLDHQLQPLAPCPNSKESMAVFEQHCKMAQEYMKVQTEIALLLQRKQELVAELDQDEKDQQNTSRLVQEHKKLLDENKSLSTYYQQCKKQLEVIRSQQQKRQGTS
B2: TGFβ-activated kinase 1 (TAK1), endogenous (enzyme, UniProt Q62073 1-579)
chain: B1 chain

Legend:
[1] = biological target: T1, MYC-TAB2 (TAK1-binding protein 2); assay: co-IP; BV2 cells transfected with Flag-TAK1 and/or MYC-TAB2; lysates incubated with anti-MYC antibody overnight at 4 °C; Co-IP kit (Absin Bioscience)
[2] = biological target: T2, TGFβ-activated kinase 1 (TAK1)-binding proteins 2 (TAB2), endogenous (mouse (endogenous in microglial cells and C57BL/6J brain)); assay: co-IP; without tags: cell lysates incubated with anti-TAB2 antibody overnight at 4 °C; microglia treated with LPS, miR-NC^KD-EVs or miR-672-5p^KD-EVs
[3] = biological target: T2, TGFβ-activated kinase 1 (TAK1)-binding proteins 2 (TAB2), endogenous (mouse (endogenous in microglial cells and C57BL/6J brain)); assay: proximity ligation; Duolink PLA on mouse brain tissue sections with anti-TAB2 and anti-TAK1; mice treated with LPS, miR-NC^KD-EVs or miR-672-5p^KD-EVs
[4] = biological target: T2, TGFβ-activated kinase 1 (TAK1)-binding proteins 2 (TAB2), endogenous (mouse (endogenous in microglial cells and C57BL/6J brain)); assay: proximity ligation; Duolink PLA on fixed, permeabilised microglial cells with anti-TAB2 and anti-TAK1; cells treated with LPS, miR-NC^KD-EVs or miR-672-5p^KD-EVs

Binder | binding [1] | binding [2] | binding [3] | binding [4]
B1 | binds | – | – | –
B2 | – | binds | binds | binds

— publication PMC10541416
